Test results as given in PMC4871590.

Columns and labels:
Assay in all cases: co-IP; AvrE1-C’ wild type and k1k2 mutant with PP2A B’ subunits co-expressed in N. benthamiana (S4B Fig); which partner was pulled down is not told
[1] = target: T1, GFP-B’β (Arabidopsis PP2A B’β subunit) (Arabidopsis thaliana) (UniProt O04376)
T1 sequence: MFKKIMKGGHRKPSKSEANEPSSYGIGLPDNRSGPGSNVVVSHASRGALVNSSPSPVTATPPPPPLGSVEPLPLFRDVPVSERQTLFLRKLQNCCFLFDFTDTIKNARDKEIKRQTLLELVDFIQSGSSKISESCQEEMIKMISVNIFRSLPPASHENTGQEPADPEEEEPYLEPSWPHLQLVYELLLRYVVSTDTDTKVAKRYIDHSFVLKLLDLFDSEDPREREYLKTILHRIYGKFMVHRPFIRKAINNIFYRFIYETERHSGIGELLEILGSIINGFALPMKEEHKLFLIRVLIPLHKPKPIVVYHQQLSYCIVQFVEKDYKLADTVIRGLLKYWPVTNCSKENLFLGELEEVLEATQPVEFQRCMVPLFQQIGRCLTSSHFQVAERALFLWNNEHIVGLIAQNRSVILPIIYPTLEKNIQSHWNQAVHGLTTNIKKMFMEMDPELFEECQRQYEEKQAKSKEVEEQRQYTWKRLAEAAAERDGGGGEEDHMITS

[2] = target: T2, GFP-B’α (Arabidopsis PP2A B’α subunit) (Arabidopsis thaliana) (UniProt O04375)
T2 sequence: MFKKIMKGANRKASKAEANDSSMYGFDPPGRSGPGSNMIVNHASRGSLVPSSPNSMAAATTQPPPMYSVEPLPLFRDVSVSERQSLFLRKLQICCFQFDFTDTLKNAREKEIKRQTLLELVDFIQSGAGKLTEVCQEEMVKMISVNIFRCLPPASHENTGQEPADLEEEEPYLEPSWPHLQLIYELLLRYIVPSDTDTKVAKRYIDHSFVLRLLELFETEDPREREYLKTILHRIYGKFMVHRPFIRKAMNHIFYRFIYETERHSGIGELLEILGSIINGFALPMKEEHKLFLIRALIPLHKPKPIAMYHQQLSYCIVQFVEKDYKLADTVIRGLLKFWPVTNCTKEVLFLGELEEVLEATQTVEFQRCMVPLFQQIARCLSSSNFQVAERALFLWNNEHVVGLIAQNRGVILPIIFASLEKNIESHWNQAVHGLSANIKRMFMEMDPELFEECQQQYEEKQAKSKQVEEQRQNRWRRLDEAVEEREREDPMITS

[3] = target: T3, GFP-B’η (Arabidopsis PP2A B’η subunit) (Arabidopsis thaliana) (UniProt Q9LU89)
T3 sequence: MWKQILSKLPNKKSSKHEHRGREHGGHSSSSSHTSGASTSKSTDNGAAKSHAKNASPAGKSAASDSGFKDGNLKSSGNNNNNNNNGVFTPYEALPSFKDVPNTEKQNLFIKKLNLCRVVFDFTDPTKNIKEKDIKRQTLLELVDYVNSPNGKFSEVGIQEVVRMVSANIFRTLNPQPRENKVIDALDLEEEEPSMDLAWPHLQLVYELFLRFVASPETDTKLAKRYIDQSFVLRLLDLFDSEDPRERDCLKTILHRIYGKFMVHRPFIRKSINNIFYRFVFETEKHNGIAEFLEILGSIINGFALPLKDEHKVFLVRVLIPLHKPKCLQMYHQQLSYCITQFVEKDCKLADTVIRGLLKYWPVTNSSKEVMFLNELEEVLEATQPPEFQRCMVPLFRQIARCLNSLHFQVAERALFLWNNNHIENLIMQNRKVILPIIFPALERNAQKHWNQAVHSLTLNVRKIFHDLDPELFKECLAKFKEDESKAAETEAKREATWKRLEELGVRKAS

For “AvrE1-C’ fragment k1k2 mutant (KK1787-88AA) (Pseudomonas syringae pv. tomato DC3000) (domain or fragment)”, the binding [1] was “binds”, the binding [2] was “binds” and the binding [3] was “binds weakly”.

These are yes or no findings as the source states them, for the method shown. Binding seen in cells or lysates may run through a third protein. Binding calls can cover weak binding; strength is not graded here. Sequences can lack the tags named with a protein.
